# The supplement of paper PMC11732987, “Enantioselective OTUD7B fragment discovery through chemoproteomics screening and high-throughput optimisation” (Communications Chemistry, 2025)
# The chains behind the UniProt entries cited, without tags or fusion partners. Where a name states a change or a piece, a line headed by the entry shows the natural chain unless it says otherwise. Residues count along the entry.
# UniProt Q9Y6R4: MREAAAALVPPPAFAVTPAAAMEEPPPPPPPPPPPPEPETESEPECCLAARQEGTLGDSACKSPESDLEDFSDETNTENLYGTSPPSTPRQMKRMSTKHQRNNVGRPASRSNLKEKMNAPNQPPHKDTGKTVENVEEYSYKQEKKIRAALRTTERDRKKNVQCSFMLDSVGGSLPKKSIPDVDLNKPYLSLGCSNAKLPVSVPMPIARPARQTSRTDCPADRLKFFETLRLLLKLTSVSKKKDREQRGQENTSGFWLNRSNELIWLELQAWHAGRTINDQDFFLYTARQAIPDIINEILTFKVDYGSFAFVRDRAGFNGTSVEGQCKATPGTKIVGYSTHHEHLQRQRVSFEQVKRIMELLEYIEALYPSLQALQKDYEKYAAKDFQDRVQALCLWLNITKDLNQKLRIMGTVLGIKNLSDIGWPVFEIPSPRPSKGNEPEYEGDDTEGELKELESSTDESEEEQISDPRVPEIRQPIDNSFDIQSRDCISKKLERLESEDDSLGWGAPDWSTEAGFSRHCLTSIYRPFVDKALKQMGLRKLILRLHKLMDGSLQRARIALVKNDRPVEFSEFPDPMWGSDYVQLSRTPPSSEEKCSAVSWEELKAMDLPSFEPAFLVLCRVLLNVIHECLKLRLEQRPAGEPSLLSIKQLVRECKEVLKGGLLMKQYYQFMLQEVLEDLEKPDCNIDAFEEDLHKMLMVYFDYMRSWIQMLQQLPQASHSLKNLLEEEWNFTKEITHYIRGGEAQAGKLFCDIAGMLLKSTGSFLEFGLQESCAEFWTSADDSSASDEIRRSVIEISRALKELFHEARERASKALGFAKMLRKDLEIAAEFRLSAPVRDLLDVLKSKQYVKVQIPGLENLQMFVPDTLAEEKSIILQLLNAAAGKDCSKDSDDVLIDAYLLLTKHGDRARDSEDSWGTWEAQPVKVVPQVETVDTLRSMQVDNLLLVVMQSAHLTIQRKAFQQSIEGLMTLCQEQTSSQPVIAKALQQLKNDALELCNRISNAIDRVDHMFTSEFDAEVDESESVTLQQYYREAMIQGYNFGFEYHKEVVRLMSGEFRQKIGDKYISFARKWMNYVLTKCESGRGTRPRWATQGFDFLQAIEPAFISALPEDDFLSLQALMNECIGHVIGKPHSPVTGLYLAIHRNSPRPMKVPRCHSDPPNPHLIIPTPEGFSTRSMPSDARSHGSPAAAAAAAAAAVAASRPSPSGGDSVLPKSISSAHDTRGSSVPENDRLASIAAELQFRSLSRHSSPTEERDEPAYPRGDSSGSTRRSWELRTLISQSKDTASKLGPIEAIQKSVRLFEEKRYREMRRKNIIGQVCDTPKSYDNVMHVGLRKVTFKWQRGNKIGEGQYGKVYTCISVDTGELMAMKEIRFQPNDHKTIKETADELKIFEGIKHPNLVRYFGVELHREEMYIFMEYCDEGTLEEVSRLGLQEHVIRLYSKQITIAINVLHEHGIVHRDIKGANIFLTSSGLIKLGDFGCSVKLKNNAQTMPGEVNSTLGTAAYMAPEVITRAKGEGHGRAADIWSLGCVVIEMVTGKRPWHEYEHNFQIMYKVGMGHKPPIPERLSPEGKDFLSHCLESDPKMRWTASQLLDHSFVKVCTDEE
# UniProt P78559, 1069-1096: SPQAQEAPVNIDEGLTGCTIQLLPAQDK
# UniProt P33991, 197-216: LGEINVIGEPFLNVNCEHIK
# UniProt Q8N5G2: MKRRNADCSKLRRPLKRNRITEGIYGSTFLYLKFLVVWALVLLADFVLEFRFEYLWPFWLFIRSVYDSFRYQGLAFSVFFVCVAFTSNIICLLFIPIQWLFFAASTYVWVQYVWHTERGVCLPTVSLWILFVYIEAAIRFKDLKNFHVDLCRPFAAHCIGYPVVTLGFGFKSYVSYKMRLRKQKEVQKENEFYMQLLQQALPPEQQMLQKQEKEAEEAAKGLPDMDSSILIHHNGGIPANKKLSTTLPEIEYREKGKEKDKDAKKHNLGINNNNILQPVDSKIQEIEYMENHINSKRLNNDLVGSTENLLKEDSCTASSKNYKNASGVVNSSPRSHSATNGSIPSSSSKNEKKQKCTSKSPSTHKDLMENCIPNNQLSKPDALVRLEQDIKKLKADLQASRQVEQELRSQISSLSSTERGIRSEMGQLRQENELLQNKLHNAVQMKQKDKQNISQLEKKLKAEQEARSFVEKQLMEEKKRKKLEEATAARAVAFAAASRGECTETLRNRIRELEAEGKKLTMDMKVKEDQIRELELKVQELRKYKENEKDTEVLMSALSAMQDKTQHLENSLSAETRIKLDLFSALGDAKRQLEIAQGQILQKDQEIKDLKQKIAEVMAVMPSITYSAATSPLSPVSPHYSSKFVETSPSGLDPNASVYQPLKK
# UniProt P49736, whole entry, looked up: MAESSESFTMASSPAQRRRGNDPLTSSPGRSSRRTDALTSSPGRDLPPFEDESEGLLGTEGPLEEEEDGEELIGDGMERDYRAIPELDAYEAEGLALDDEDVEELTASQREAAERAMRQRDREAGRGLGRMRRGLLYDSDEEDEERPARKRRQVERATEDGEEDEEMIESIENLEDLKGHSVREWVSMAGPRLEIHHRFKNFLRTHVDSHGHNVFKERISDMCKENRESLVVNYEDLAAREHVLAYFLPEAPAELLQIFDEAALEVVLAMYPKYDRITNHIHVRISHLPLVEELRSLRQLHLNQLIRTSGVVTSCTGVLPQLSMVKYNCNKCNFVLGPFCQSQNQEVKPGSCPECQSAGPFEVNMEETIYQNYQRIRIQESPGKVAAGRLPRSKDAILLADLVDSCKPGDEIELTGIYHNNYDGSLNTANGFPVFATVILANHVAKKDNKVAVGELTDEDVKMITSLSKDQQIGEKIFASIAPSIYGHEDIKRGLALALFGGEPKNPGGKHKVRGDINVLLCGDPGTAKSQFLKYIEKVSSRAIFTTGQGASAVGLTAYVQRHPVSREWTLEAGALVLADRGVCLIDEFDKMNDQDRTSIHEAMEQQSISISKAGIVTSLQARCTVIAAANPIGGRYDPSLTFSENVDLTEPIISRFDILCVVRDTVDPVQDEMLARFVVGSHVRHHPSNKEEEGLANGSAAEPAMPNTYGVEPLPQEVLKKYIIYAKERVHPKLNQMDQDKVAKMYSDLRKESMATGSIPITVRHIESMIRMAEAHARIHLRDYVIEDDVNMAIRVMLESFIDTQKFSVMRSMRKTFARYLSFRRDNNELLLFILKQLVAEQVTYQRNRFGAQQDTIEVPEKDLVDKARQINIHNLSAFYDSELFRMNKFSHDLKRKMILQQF
# UniProt O60318: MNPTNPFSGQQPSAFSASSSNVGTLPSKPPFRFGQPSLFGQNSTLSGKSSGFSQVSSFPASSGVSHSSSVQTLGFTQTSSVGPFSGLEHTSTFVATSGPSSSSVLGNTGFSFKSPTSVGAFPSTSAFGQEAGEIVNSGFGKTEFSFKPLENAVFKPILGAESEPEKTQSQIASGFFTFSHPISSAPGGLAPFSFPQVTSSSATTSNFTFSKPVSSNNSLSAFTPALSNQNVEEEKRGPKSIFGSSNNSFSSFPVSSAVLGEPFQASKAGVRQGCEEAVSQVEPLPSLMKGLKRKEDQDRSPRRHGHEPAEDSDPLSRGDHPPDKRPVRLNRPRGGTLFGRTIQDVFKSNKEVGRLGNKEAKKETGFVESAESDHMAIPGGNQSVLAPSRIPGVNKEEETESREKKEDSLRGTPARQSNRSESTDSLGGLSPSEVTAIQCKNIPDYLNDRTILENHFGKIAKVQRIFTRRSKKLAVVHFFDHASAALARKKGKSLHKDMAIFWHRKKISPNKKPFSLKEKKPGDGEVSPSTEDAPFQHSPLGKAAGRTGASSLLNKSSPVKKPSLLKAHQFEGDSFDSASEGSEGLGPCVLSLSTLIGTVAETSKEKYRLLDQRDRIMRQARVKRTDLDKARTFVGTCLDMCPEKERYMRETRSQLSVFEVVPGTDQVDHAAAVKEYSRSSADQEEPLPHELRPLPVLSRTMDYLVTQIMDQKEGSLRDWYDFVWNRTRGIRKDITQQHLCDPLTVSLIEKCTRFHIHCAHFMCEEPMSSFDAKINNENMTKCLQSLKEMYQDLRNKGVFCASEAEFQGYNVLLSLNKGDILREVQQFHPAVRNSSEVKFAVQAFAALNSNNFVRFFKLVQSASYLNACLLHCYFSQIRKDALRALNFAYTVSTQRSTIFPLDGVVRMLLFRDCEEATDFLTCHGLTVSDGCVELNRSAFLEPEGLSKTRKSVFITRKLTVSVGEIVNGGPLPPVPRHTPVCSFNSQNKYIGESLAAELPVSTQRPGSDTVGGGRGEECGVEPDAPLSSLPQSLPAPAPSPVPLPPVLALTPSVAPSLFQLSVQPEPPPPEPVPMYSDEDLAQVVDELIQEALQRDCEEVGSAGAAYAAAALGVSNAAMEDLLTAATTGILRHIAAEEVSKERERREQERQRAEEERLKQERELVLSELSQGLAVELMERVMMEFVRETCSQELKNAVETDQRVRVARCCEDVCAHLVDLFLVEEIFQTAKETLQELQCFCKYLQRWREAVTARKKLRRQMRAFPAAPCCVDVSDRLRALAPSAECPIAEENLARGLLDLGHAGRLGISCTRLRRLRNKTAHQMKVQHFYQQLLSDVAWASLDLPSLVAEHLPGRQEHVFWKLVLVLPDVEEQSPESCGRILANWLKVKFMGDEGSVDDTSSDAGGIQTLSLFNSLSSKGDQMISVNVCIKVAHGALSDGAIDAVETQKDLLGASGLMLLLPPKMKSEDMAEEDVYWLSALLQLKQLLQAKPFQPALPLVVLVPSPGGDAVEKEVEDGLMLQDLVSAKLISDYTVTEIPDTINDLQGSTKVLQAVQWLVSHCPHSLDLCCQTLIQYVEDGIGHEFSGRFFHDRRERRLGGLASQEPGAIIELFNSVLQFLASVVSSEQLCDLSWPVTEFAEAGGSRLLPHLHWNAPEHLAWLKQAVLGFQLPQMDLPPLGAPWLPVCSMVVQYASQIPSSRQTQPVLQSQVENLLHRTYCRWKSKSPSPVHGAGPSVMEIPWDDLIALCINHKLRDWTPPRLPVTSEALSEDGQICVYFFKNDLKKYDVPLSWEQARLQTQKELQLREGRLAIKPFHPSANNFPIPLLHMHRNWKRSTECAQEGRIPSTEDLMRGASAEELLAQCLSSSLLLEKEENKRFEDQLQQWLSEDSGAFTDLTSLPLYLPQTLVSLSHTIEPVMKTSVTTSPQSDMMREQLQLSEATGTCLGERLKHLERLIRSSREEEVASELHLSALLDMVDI
# UniProt O95382: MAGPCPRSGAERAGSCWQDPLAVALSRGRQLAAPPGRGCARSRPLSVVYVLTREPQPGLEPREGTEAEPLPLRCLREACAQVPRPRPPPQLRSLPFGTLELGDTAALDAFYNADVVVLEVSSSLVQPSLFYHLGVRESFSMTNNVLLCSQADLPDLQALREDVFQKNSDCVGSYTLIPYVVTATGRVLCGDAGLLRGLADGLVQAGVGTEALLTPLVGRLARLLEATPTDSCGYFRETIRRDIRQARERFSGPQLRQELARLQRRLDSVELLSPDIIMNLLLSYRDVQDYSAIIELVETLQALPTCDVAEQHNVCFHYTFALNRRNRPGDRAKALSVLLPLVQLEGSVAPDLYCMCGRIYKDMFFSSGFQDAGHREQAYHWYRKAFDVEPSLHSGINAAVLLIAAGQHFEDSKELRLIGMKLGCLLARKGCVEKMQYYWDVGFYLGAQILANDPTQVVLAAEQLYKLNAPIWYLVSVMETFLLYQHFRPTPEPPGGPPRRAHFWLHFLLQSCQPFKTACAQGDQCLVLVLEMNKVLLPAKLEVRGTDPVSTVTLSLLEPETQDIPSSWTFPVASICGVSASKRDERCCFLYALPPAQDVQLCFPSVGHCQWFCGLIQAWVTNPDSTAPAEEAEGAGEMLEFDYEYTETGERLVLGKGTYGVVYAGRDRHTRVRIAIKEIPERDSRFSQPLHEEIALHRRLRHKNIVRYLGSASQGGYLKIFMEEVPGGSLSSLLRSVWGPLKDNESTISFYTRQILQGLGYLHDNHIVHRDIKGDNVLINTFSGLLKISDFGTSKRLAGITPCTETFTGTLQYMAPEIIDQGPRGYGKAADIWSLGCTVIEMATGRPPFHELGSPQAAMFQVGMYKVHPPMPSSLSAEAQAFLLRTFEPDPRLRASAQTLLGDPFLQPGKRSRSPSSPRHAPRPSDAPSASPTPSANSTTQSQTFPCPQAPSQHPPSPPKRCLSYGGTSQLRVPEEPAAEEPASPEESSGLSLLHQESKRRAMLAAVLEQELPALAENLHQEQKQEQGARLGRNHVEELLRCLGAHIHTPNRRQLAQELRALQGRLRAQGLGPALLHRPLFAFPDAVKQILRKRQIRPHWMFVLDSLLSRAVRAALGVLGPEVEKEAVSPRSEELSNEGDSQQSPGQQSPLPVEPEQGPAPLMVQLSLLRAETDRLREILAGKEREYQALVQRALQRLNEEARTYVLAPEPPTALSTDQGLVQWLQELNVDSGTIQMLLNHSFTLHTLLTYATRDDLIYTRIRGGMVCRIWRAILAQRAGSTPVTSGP
# This is one part of the list. The data scatter; read single values as rough.
# Tests used:
# [1] = compound: ClCC(=O)N[C@@H]1CCCc2ccccc12; experiment: log2 mean competition ratio of IA-DTB cysteine labelling (DMSO/compound) (log2 ratio); higher = stronger cysteine engagement by compound; details: treatment time: 4 h, cell line lysate: HEK293T
# Experimental: (§1)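 IA-DTB competitive cysteine chemoproteomics in HEK293T RIPA lysate. Lysates were treated with compound 29 or 30 at 50 or 200 µM for 4 h, then IA-DTB (500 µM, 1 h), trypsin-digested, NeutrAvidin-enriched and analysed by diaPASEF. Competition ratio = intensity DMSO / intensity compound (n=4 treated, n=64 DMSO); binding: mean log2 CR ≥ 1 and p ≤ 0.05 plus QC filters. Target is the cysteine site.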
# [2] = compound: ClCC(=O)N[C@H]1CCCc2ccccc12; experiment: as above; details: treatment time: 4 h, cell line lysate: HEK293T
# Experimental: as §1
Target,log2 mean competition ratio ([1]; 50 µM),log2 mean competition ratio ([1]; 200 µM),log2 mean competition ratio ([2]; 50 µM),log2 mean competition ratio ([2]; 200 µM)
MCM10 C369 (UniProt Q7L590),-0.364,0.235,-0.704,0.136
MAP2K2 C384 (UniProt P36507),-0.0626,0.074,0.075,-0.0255
MAP3K4 C218 (UniProt Q9Y6R4),0.131,0.218,-0.0244,0.341
LZTS2 C355 (UniProt Q9BRK4),0.0369,0.349,0.206,0.395
MAP1A C1086 (UniProt P78559),-0.00329,-0.447,0.0946,-0.292
MCM4 C212 (UniProt P33991),0.00868,0.268,-0.401,-0.0331
MAD2L1 C106 (UniProt Q13257),-0.166,-0.0716,-0.116,0.436
MACO1 C502 (UniProt Q8N5G2),0.0391,0.291,0.309,0.302
MARK1 C507 (UniProt Q9P0L2),-0.16,-0.107,-0.476,0.0899
MCM2 C584 (UniProt P49736),-0.174,-0.305,-0.38,-0.204
MBNL1 C185,-0.149,0.478,-0.0139,0.409
MCM3AP C1839 (UniProt O60318),-0.164,0.124,-0.124,0.0856
MAP2K3 C29 (UniProt P46734),0.115,-0.0806,0.0777,-0.34
LRRC14 C109 (UniProt Q15048),0.13,0.332,-0.163,0.134
MAPK3 C178,0.393,0.218,0.251,0.17
MARS1 C309,-0.322,-0.0812,0.658,0.0559
MAP3K6 C962 (UniProt O95382),0.424,0.292,-0.185,0.37
MBNL1 C43,0.00327,0.0547,0.0646,0.122
LRRC1 C432,-0.0377,0.545,-0.000433,0.497
MAP3K6 C189 (UniProt O95382),0.128,0.211,-0.308,0.103
MARF1 C539 (UniProt Q9Y4F3),-0.000158,0.188,-0.235,0.269
MAML1 C957 (UniProt Q92585),0.375,-0.0151,-0.291,0.189
MAP3K4 C326 (UniProt Q9Y6R4),-0.0587,0.0635,-0.227,0.231
LRRC41 C123 (UniProt Q15345),0.265,0.647,0.144,0.484
MACF1 C887,-0.341,-0.118,0.248,0.0193

# Quoted at random: two records from the list, in no set order.
Target,log2 mean competition ratio ([1]; 50 µM),log2 mean competition ratio ([1]; 200 µM),log2 mean competition ratio ([2]; 50 µM),log2 mean competition ratio ([2]; 200 µM)
MCM4 C212 (UniProt P33991),0.00868,0.268,-0.401,-0.0331
MAP3K6 C189 (UniProt O95382),0.128,0.211,-0.308,0.103
